Reference: the supplement of paper PMC10849652
Some of the results follow.

Protein sequences, listed by entry. Tags and fused reporters are not part of them. Lines headed by an entry give the natural chain unless they say otherwise; changes in a name come on top.
UniProt Q13217: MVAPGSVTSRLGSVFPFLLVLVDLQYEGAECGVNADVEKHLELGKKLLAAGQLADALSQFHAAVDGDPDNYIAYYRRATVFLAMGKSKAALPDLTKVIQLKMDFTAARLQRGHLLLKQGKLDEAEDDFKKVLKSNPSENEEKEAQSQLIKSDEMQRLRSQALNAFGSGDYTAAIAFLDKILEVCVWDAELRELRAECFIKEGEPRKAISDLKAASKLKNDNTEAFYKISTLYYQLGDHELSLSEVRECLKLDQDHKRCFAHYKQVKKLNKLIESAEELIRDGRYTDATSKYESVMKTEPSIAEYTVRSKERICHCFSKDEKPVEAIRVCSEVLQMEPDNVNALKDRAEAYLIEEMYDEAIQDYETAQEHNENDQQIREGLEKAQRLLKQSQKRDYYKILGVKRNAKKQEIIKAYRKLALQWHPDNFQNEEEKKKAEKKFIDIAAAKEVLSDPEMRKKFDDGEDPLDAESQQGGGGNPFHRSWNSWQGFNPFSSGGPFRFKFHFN
UniProt Q9Y2G8: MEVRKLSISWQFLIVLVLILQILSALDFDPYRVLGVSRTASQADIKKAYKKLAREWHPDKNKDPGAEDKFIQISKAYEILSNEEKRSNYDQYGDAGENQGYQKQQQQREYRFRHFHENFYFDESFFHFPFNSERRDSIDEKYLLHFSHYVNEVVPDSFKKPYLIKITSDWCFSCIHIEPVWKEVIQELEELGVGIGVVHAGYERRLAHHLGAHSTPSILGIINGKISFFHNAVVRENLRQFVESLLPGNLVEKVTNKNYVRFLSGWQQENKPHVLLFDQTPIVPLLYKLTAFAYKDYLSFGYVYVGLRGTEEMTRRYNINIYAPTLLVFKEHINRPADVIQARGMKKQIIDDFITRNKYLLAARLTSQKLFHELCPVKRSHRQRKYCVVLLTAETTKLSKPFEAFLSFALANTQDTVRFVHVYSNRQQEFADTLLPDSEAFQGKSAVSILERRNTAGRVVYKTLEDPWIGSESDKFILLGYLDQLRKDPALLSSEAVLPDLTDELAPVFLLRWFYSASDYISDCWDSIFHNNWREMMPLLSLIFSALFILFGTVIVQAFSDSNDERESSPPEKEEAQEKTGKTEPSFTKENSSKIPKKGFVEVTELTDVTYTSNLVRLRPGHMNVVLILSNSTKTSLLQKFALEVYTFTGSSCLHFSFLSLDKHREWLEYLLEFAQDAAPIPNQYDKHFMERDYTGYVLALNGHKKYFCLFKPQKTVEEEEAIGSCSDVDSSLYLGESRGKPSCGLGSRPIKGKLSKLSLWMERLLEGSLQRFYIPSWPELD
UniProt P11532, whole entry, looked up: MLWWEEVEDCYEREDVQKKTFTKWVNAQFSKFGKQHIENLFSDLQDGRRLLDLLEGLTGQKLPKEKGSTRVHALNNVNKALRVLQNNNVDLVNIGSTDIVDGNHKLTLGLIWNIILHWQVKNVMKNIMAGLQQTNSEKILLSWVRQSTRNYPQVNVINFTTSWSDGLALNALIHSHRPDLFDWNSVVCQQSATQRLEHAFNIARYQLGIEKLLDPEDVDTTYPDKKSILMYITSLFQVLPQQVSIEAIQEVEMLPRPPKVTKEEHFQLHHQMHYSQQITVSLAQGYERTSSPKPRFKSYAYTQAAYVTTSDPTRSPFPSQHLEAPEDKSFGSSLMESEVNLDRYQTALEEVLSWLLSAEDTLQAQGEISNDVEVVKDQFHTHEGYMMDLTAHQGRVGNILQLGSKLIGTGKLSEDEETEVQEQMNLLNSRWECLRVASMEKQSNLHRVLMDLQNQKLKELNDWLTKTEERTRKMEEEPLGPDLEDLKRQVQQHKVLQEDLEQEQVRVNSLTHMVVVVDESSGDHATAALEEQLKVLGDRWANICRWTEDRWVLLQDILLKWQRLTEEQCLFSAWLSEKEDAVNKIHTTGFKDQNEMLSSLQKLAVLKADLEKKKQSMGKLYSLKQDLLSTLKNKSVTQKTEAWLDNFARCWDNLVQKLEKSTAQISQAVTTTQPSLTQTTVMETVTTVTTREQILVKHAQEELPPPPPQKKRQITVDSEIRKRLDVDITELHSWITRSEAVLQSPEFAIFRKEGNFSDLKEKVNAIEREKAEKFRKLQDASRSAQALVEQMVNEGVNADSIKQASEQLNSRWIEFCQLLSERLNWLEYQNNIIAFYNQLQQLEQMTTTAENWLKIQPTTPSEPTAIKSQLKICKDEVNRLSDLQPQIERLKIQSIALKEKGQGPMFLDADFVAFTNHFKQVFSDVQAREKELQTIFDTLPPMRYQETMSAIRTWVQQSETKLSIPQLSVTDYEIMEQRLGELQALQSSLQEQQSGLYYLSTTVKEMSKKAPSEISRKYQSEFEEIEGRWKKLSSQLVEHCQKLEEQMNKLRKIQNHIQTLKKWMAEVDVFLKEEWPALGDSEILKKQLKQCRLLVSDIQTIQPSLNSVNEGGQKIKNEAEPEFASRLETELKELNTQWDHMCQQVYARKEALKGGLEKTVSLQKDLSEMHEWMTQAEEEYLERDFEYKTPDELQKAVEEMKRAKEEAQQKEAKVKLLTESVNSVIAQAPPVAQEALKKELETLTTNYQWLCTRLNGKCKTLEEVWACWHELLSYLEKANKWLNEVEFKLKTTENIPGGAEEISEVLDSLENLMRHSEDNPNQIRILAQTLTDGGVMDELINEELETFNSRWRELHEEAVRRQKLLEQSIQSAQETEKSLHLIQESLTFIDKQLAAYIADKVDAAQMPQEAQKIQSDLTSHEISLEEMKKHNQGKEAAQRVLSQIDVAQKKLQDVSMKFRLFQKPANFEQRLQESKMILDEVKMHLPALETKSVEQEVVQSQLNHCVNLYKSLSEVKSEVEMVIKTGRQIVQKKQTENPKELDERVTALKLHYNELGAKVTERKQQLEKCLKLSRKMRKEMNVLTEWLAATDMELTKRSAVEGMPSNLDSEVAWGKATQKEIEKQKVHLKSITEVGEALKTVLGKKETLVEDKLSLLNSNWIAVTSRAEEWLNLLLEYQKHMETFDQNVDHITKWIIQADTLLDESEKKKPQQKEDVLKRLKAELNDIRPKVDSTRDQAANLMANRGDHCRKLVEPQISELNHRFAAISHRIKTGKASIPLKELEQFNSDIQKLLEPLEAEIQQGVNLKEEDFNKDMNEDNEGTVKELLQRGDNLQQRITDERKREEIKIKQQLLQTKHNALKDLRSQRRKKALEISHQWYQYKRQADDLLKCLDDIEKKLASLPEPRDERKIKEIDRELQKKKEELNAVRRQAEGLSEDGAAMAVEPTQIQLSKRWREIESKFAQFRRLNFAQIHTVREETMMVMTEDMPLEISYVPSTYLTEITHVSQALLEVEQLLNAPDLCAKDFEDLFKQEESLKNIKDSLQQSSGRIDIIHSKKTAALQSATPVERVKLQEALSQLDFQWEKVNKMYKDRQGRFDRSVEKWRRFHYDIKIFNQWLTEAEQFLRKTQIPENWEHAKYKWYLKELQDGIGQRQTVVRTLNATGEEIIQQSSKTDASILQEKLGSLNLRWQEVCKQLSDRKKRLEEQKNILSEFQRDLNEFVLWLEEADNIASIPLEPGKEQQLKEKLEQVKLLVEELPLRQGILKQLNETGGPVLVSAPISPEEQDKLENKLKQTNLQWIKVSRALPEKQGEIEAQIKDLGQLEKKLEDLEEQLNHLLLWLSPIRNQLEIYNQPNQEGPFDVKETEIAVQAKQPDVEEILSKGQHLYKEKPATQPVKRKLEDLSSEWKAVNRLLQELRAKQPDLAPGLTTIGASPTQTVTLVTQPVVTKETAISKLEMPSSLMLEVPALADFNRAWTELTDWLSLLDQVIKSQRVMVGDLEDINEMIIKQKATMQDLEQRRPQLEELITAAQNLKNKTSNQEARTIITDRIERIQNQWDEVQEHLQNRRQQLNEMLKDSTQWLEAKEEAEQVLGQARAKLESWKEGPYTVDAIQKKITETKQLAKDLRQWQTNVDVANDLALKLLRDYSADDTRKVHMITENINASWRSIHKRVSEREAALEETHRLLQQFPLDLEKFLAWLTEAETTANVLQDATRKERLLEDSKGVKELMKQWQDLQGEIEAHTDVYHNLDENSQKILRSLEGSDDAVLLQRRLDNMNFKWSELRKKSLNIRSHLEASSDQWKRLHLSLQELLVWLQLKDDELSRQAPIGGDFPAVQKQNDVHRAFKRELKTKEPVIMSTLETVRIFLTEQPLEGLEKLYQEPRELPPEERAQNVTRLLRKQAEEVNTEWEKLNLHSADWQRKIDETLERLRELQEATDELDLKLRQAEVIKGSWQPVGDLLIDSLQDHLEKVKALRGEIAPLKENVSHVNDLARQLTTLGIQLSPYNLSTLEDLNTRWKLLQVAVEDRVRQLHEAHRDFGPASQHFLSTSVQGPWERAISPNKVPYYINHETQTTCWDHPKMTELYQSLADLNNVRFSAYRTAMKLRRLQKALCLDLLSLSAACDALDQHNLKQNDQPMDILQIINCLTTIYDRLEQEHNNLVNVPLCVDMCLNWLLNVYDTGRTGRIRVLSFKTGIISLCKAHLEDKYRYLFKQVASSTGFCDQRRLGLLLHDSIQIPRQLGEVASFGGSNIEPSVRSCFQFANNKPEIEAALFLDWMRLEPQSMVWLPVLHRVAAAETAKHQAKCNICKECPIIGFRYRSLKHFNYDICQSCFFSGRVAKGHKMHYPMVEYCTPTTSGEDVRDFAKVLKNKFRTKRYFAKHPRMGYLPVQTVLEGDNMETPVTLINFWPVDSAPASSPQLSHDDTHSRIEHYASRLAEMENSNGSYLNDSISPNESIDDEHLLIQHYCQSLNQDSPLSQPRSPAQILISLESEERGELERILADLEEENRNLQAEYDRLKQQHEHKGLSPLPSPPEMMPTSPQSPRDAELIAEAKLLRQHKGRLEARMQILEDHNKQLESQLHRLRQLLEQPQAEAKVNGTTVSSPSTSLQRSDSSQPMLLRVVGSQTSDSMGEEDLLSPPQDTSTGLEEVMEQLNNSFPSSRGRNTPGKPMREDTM
UniProt Q9NYP3: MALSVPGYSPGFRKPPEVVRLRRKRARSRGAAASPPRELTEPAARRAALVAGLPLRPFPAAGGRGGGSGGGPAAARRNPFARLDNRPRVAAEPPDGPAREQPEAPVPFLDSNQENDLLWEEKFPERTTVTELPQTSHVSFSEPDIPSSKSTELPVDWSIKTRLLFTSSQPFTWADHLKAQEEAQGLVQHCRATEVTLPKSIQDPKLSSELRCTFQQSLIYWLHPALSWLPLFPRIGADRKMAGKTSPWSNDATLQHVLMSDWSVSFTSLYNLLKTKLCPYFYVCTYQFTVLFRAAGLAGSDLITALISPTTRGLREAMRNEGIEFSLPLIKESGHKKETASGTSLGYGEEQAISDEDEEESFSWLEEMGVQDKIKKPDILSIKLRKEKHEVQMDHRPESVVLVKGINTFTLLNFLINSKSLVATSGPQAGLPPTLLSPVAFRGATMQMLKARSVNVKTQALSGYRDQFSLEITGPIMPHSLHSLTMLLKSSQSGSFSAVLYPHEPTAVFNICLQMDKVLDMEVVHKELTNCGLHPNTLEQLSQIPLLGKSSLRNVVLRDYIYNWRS
UniProt P00374: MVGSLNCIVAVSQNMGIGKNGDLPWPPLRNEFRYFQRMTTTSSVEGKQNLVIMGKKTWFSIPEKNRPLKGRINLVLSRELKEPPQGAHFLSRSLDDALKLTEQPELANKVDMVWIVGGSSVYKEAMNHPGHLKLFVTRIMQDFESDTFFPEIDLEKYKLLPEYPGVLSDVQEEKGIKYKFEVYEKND
UniProt Q68CQ4: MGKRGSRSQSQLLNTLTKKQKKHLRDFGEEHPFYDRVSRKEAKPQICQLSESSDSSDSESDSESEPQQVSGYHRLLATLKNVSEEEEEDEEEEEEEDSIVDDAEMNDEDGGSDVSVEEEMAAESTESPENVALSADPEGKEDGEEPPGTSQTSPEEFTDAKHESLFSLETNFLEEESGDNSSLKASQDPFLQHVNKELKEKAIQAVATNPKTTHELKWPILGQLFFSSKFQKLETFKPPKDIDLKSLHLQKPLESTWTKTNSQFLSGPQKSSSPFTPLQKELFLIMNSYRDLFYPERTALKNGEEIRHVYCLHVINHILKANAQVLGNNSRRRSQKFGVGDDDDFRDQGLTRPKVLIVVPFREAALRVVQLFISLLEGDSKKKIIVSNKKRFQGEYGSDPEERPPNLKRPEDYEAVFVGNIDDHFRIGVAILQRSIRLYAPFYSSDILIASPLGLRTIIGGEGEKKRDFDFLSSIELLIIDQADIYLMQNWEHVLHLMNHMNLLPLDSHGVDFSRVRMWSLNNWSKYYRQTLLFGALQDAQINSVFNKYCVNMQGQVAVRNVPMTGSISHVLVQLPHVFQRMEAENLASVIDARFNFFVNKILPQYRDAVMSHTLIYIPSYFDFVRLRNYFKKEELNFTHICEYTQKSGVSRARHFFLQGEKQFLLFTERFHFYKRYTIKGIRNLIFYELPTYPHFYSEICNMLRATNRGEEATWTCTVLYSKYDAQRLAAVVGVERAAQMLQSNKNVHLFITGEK

How the values were obtained:
Assay in all cases: log2 fold change, soluble protein after heating vs DMSO (PISA); higher = thermal stabilisation; K562 lysate, 10 uM; active = over 0.2 and 3.5 SD of the protein, either way, in both replicates (recomputed)
alvocidib = compound: CN1CC[C@H](c2c(O)cc(O)c3c(=O)cc(-c4ccccc4Cl)oc23)[C@H](O)C1 [alvocidib]
Summary of the method: (§1)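 Quantification was by TMTpro 16plex LC-MS/MS with equalised channel sums, applied to the supernatant after 21,000xg for 90 min. Samples were crude K562 extract at 1 mg/mL protein in PBS pH 7.4 with 1 mM MgCl2, treated with 10 μM compound for 30 min, heated for 3 min across 48°C-58°C, pooled and brought to 0.5% NP-40 at 4°C. Values are log-two fold changes in thermal stability relative to solvent controls, from duplicates.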

Tubastatin A = compound: CN1CCc2c(c3ccccc3n2Cc2ccc(C(=O)NO)cc2)C1 [Tubastatin A]
Summary of the method: as §1

[1] = compound: CNC(=O)C1=CC=CC=C1NC2=NC(=NC=C2Cl)NC3=C(C=C(C=C3)N4CCOCC4)OC
Summary of the method: as §1

defactinib = compound: CNC(=O)c1ccc(Nc2ncc(C(F)(F)F)c(NCc3nccnc3N(C)S(C)(=O)=O)n2)cc1 [defactinib]
Summary of the method: as §1

[2] = compound: CNc1nc(-c2ccc3c(N)n[nH]c3c2)cc(N2C[C@@H](C(=O)NC3CCCCC3)CC[C@H]2C)n1
Summary of the method: as §1

encorafenib = compound: COC(=O)N[C@@H](C)CNc1nccc(-c2cn(C(C)C)nc2-c2cc(Cl)cc(NS(C)(=O)=O)c2F)n1 [encorafenib]
Summary of the method: as §1

[3] = compound: COC(=O)[C@H](CCSC)NC(=O)C1=C(C=C(C=C1)NC[C@H](CS)N)C2=CC=CC=C2
Summary of the method: as §1

alisertib = compound: COc1cc(Nc2ncc3c(n2)-c2ccc(Cl)cc2C(c2c(F)cccc2OC)=NC3)ccc1C(=O)O [alisertib]
Summary of the method: as §1

[4] = compound: COc1cc2nc(-c3cc(F)ccc3O)nc(N[C@@H]3CNC[C@H]3C(C)(C)O)c2cc1OC
Summary of the method: as §1

gefitinib = compound: COc1cc2ncnc(Nc3ccc(F)c(Cl)c3)c2cc1OCCCN1CCOCC1 [gefitinib]
Summary of the method: as §1

Measured: log2 fold change

DIS3L2 (UniProt Q8IYB7)
inactive: alvocidib 0.028 | Tubastatin A -0.1 | [1] 0.005 | defactinib -0.034 | [2] -0.08 | encorafenib 0.039 | [3] 0.103 | alisertib 0.005 | [4] 0.008 | gefitinib -0.017

DHX29 (UniProt Q7Z478)
inactive: alvocidib -0.027 | Tubastatin A 0.01 | [1] 0.006 | defactinib 0.009 | [2] 0.01 | encorafenib 0.019 | [3] -0.021 | alisertib 0.048 | [4] -0.01 | gefitinib 0.006

DNAJC3 (UniProt Q13217)
inactive: alvocidib 0.004 | Tubastatin A 0.073 | [1] 0.005 | defactinib 0.021 | [2] -0.029 | encorafenib 0.044 | [3] 0.011 | alisertib 0 | [4] 0.005 | gefitinib 0.026

DNAJC12 (UniProt Q9UKB3)
inactive: alvocidib -0.055 | Tubastatin A 0.026 | [1] 0.008 | defactinib -0.016 | [2] 0.07 | encorafenib 0.078 | [3] -0.143 | alisertib -0.003 | [4] -0.022 | gefitinib 0.035

2 neighbouring entries from above, quoted:
DHX29 (UniProt Q7Z478)
inactive: alvocidib -0.027 | Tubastatin A 0.01 | [1] 0.006 | defactinib 0.009 | [2] 0.01 | encorafenib 0.019 | [3] -0.021 | alisertib 0.048 | [4] -0.01 | gefitinib 0.006

DNAJC3 (UniProt Q13217)
inactive: alvocidib 0.004 | Tubastatin A 0.073 | [1] 0.005 | defactinib 0.021 | [2] -0.029 | encorafenib 0.044 | [3] 0.011 | alisertib 0 | [4] 0.005 | gefitinib 0.026

Additional entries.

DNAJC16 (UniProt Q9Y2G8)
inactive: alvocidib 0.175 | Tubastatin A 0.106 | [2] -0.152 | alisertib 0.032 | gefitinib -0.118

DNM1 (UniProt Q05193)
inactive: alvocidib -0.014 | Tubastatin A -0.236 | [1] 0.017 | [2] -0.206 | alisertib 0.072 | [4] -0.07 | gefitinib 0.134

DMD isoform 14 (UniProt P11532)
inactive: alvocidib 0.256 | Tubastatin A 0.141 | [2] 0.315

DIAPH1 (UniProt H9KV28)
inactive: alvocidib -0.039 | Tubastatin A 0.032 | [1] 0.036 | defactinib 0.012 | encorafenib 0.054 | [3] 0.213 | alisertib -0.012 | [4] 0.026 | gefitinib -0.005

DONSON (UniProt Q9NYP3)
inactive: alvocidib 0.04 | Tubastatin A -0.079 | [1] 0.069 | [2] 0.005 | alisertib -0.05 | [4] 0.028 | gefitinib 0.075

DHFR (UniProt P00374)
inactive: alvocidib 0.03 | Tubastatin A -0.111 | [1] -0.001 | defactinib 0.039 | [2] -0.023 | encorafenib 0.01 | [3] 0.141 | alisertib 0.017 | [4] -0.192 | gefitinib 0.028

DIEXF (UniProt Q68CQ4)
inactive: alvocidib 0.001 | Tubastatin A -0.11 | [1] -0.11 | defactinib -0.003 | [2] -0.021 | encorafenib -0.006 | [3] 0.052 | alisertib -0.037 | [4] 0.011 | gefitinib -0.017

DNM2 isoform 4 (UniProt P50570)
inactive: alvocidib -0.16 | Tubastatin A -0.095 | [1] -0.278 | [2] 0.055 | encorafenib 0.13 | [3] 0.06 | alisertib -0.007 | [4] -0.032 | gefitinib 0.029

DGKA (UniProt P23743)
inactive: alvocidib -0.016 | Tubastatin A -0.039 | defactinib 0.078 | [2] -0.034 | encorafenib 0.007 | [3] 0.013 | alisertib -0.043 | [4] -0.042 | gefitinib 0.025
